This note sets out measurements from the supplement of paper PMC6411743.

Protein sequences, listed by entry. Tags and fused reporters are not part of them. Lines headed by an entry give the natural chain unless they say otherwise; changes in a name come on top.
UniProt Q9UNS2: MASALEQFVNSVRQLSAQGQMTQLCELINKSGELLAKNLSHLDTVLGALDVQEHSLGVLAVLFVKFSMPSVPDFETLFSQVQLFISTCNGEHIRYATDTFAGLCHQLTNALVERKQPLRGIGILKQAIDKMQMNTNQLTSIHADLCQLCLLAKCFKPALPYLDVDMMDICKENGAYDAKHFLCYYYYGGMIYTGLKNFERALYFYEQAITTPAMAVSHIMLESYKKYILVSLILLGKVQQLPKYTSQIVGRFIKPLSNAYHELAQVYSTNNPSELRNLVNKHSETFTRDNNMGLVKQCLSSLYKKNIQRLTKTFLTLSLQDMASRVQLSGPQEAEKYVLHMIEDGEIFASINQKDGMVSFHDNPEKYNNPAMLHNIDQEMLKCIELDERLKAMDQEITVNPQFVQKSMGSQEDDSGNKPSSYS
UniProt Q9UPM8: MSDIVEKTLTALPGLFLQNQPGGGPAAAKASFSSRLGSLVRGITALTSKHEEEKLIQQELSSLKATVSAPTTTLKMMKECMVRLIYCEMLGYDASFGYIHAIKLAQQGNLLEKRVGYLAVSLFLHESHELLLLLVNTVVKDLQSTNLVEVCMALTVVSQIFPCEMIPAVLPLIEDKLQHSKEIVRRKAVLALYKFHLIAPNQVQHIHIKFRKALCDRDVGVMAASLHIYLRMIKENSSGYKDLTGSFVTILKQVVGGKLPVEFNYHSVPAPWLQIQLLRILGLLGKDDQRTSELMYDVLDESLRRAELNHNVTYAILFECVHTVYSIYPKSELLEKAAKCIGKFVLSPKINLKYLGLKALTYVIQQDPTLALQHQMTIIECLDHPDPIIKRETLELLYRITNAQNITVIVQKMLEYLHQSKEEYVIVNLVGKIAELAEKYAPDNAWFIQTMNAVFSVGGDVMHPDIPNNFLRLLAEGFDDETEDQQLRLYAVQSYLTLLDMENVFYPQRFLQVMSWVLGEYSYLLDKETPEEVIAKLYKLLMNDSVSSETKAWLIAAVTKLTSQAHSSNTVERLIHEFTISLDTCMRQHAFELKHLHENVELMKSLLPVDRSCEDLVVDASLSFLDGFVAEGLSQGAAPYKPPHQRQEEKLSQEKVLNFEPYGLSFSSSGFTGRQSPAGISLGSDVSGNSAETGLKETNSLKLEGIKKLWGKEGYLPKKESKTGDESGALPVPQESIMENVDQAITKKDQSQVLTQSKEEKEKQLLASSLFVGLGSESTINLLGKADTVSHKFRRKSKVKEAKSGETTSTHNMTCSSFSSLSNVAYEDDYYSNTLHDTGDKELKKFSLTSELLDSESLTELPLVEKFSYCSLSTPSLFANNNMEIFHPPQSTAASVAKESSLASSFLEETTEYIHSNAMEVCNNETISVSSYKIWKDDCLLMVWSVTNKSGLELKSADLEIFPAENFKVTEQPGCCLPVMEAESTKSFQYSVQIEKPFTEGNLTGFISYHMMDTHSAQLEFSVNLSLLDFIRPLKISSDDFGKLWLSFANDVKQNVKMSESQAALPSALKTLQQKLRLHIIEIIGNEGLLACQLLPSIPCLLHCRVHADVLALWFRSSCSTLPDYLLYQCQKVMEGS
UniProt Q9UM21: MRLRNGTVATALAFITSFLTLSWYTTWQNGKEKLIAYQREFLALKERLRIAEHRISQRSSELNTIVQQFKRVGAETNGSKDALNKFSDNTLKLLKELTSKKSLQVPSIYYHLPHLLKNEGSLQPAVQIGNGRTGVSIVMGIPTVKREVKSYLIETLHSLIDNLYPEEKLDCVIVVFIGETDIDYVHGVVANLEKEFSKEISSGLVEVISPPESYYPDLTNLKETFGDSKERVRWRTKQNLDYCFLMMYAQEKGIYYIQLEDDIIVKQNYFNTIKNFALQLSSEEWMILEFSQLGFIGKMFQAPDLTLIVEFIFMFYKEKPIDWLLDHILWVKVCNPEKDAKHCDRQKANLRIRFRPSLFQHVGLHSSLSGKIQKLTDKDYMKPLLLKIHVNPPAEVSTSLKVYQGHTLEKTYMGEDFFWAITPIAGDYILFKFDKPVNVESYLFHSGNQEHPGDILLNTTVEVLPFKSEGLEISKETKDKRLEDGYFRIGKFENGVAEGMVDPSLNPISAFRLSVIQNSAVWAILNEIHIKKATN
UniProt Q9UHL0: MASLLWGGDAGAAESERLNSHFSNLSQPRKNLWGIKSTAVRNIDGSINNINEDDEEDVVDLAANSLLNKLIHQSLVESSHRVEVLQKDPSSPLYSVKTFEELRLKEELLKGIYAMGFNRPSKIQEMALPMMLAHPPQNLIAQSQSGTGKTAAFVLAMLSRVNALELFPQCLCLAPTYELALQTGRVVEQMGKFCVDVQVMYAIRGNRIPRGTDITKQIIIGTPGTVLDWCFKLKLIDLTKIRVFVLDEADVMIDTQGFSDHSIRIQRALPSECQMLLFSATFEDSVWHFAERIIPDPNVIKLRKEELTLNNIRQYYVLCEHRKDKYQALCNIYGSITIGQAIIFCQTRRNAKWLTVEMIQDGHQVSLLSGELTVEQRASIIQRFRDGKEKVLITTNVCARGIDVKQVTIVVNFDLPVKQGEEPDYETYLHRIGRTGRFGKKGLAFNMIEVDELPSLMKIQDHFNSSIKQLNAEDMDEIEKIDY
UniProt Q9UHP3: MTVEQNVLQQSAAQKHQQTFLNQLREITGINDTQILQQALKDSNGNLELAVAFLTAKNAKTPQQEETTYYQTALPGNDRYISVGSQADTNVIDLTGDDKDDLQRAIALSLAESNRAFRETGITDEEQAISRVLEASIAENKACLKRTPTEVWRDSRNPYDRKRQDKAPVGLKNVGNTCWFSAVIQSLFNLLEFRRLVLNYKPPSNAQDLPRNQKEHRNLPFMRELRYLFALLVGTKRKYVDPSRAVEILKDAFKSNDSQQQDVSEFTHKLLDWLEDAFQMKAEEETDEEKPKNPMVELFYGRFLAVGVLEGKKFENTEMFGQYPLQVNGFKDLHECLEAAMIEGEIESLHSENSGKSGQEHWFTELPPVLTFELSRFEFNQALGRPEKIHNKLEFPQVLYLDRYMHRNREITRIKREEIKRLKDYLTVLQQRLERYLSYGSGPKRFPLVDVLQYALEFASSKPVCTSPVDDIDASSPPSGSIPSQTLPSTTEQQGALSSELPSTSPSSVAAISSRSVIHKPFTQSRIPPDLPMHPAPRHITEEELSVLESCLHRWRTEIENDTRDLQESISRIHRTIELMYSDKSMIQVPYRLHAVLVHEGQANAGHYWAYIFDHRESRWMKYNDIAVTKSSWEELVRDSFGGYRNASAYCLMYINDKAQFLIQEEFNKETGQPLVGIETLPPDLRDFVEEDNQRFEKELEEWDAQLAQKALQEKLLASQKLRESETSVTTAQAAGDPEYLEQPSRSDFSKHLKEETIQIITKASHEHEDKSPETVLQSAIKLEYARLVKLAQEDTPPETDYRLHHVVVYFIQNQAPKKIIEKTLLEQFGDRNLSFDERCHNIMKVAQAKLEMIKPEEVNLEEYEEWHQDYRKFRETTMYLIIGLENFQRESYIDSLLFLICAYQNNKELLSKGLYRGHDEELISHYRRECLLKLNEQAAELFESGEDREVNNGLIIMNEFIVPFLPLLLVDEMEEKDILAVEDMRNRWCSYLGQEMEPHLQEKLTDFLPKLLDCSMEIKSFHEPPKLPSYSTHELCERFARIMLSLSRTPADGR
UniProt Q9UKG1: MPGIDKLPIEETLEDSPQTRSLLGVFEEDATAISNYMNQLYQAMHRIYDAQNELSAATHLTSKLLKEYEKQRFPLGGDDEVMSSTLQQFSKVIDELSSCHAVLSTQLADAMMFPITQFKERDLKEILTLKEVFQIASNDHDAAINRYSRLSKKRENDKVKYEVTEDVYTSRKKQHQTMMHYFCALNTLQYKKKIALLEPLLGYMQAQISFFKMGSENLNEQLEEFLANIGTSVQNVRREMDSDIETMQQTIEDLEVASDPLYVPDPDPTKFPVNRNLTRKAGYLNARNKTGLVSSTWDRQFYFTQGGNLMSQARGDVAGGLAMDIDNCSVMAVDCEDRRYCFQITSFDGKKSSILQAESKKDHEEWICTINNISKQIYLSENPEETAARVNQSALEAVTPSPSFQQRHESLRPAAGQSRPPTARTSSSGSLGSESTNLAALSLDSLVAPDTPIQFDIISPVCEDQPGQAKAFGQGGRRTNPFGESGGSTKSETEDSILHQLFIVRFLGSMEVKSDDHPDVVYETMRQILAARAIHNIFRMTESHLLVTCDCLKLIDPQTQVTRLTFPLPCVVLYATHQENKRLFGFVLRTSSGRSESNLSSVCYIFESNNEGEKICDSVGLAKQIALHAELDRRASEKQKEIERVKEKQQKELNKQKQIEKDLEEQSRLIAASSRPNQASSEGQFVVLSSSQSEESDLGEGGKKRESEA
UniProt Q9P260: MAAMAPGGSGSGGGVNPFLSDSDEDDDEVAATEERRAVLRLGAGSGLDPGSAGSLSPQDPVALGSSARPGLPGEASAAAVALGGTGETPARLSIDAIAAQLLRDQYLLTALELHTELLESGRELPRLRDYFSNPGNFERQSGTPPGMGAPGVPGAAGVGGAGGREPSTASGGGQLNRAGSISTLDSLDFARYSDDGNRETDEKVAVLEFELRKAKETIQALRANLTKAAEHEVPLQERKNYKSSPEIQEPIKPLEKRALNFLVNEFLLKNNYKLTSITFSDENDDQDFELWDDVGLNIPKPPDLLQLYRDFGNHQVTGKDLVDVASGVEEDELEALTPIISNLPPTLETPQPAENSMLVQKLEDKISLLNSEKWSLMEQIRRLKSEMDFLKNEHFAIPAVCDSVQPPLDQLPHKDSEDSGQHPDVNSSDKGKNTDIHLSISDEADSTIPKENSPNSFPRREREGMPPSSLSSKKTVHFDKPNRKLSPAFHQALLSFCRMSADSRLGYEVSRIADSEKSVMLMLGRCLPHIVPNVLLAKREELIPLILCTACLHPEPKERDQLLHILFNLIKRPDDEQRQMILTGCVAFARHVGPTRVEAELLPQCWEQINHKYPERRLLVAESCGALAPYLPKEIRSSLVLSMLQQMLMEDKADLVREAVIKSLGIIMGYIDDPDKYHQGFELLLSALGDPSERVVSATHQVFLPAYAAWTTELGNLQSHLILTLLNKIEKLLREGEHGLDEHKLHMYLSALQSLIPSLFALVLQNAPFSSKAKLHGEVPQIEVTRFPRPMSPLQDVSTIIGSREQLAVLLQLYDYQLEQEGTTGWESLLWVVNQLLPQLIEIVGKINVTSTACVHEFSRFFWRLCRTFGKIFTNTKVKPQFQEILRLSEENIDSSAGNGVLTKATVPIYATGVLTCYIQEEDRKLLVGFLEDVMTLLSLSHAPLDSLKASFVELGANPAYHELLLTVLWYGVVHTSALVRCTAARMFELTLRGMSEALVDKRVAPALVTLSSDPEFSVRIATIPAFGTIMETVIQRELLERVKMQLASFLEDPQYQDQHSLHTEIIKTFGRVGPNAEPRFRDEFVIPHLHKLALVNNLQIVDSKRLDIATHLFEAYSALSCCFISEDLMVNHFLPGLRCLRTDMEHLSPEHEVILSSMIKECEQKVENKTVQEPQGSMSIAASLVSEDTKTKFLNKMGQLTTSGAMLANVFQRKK
UniProt Q9UBS8: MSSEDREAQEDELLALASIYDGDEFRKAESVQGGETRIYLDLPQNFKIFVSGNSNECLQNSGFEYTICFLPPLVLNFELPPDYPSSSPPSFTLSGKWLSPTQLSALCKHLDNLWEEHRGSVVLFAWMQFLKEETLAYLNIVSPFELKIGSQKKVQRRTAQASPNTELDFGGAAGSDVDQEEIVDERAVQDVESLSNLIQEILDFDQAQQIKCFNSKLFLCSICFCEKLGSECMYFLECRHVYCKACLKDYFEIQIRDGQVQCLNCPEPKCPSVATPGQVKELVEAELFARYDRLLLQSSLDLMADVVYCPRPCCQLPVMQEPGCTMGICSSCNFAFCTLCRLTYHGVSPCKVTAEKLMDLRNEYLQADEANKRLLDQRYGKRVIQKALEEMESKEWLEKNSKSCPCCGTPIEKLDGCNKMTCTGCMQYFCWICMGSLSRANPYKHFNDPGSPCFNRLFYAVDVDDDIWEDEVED
UniProt Q9UBI9: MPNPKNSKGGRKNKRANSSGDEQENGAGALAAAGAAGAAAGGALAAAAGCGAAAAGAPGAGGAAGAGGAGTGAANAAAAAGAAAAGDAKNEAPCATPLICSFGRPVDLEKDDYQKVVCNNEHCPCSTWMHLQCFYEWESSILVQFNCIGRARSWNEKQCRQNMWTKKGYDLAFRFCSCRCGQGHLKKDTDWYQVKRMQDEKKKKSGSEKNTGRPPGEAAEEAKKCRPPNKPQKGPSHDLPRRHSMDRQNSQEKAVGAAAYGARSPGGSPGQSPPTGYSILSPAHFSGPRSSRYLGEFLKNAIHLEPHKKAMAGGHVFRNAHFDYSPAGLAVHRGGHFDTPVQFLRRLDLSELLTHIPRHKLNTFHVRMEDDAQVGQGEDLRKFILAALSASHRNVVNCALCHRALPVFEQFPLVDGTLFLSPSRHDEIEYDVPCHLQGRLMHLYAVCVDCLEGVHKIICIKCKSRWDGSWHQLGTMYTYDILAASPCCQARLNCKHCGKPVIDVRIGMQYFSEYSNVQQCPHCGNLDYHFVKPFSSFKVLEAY

± gives the standard deviation of the averaged measurements. The entries are a selection whose mix differs from that of the whole data set.

Compound in the experiment: Nc1ncnc2c1ncn2[C@@H]1O[C@H](COP(=O)(O)OP(=O)(O)OP(=O)(O)O)[C@@H](O)[C@H]1O [adenosine triphosphate]
As to the kind of experiment: NP40-soluble protein abundance relative to vehicle (solubility fold change) (ratio); higher = more soluble protein in presence of ATP. Particulars: concentration: 10mM. Put shortly:
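Each value is a fold change relative to the detergent-processed vehicle, calculated per replicate from vsn-normalised intensities. Jurkat crude lysate received eight concentrations (0.1 to 10 mM) for 10 min at room temperature and 3 min at 37 °C, then was solubilised in 0.8% NP40 with benzonase (60 min, 4 °C). The ultracentrifuged supernatant was TMT-labelled and run by LC-MS/MS in three independent experiments.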
“UniProt Q9UMZ2-3|Q9UMZ2-4|Q9UMZ2-5|Q9UMZ2-6|Q9UMZ2-7|Q9UMZ2-8|Q9UMZ2-9|Q9UMZ2”: the NP40-soluble protein abundance amounted to 0.904 ± 0.023.
The same measure for COPS3 (UniProt Q9UNS2): 0.902 ± 0.01; for AP4E1 (UniProt Q9UPM8): 1.18 ± 0.072.
For the target ANKRD50 (UniProt Q9ULJ7), the NP40-soluble protein abundance came to 0.956 ± 0.051.
As to CHORDC1 (UniProt Q9UHD1), the NP40-soluble protein abundance was 0.951 ± 0.05.
Consider SLC39A10 (UniProt Q9ULF5), for which the NP40-soluble protein abundance came out at 0.926 ± 0.022.
As for CROT (UniProt Q9UKG9), the figure is 1.01 ± 0.074; as for UniProt Q9UGQ2 and related entries, 0.965 ± 0.037; as for UniProt Q9UM21, 1.02 ± 0.065.
As for UniProt Q9UHA4, the figure is 0.916 ± 0.079.
Regarding UniProt Q9UKT9 and related entries, the NP40-soluble protein abundance came out at 1.15 ± 0.071.
As for NENF (UniProt Q9UMX5), the figure is 0.875 ± 0.055.
As to UniProt Q9UJK0, the NP40-soluble protein abundance worked out at 0.93 ± 0.014.
As for GPATCH8 (UniProt Q9UKJ3), the figure is 1.23 ± 0.066.
As for UniProt Q9UKZ1, the figure is 1.2 ± 0.072.
As for UniProt Q9UHL0 and related entries, the figure is 1.01 ± 0.17; as for UniProt Q9UH92 and related entries, 0.926 ± 0.034.
Turning to UniProt Q9UHP3 and related entries, the NP40-soluble protein abundance turned out to be 0.921 ± 0.043.
In the case of UniProt Q9UK61 and related entries, the NP40-soluble protein abundance turned out to be 1.21 ± 0.057.
As for MED13 (UniProt Q9UHV7), the figure is 1.285 ± 0.012; as for APPL1 (UniProt Q9UKG1), 1.01 ± 0.076.
The same measure for VPS51 (UniProt Q9UID3): 0.968 ± 0.056; for UniProt Q9UJX5 and related entries: 0.989 ± 0.032; for PRPF19 (UniProt Q9UMS4): 1.11 ± 0.05.
As for UniProt Q9P260 and related entries, the figure is 0.981 ± 0.038; as for DCTN4 (UniProt Q9UJW0), 0.979 ± 0.058; as for UniProt Q9ULP9 and related entries, 1 ± 0.049.
In the case of UniProt Q9UII2, the NP40-soluble protein abundance is 0.827 ± 0.14.
The same measure for UniProt Q9UPY8 and related entries: 0.915 ± 0.026; for UniProt Q9ULL5-3: 1.04 ± 0.086.
The same measure for UniProt Q9UDT6-2: 1.24 ± 0.14; for UniProt Q9UJY5 and related entries: 0.906 ± 0.012; for UniProt Q9UBS8 and related entries: 0.995 ± 0.026.
The same measure for CGN (UniProt Q9P2M7): 1.08 ± 0.018.
In the case of HECA (UniProt Q9UBI9), the NP40-soluble protein abundance came out at 1.13 ± 0.5.
The same measure for HECTD1 (UniProt Q9ULT8): 0.989 ± 0.04; for ANAPC7 (UniProt Q9UJX3): 1.004 ± 0.0041.
MRPS33 (UniProt Q9Y291): the NP40-soluble protein abundance was found to be 0.792 ± 0.16.
